# Experimental data as given in the supplement of paper PMC10032668.
# Chains of the proteins cited; added tags and fusions are not shown.
# CALR, P27797, UniProt P27797, whole entry: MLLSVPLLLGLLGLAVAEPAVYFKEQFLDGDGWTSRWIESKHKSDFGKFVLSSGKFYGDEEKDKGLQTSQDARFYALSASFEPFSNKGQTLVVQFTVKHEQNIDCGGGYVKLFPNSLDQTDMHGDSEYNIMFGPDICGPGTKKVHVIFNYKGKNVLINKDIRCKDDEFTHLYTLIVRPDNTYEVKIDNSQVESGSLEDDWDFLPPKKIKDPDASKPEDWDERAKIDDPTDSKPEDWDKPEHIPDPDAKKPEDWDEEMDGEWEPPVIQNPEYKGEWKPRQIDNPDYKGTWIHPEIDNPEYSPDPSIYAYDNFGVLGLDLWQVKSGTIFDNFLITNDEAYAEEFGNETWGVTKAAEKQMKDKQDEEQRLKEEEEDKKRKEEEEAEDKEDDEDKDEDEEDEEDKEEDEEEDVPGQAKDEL
# The other results are listed elsewhere or left out. The list holds hits alone, and they repeat only in part.
# B1: RP11-620J15.3 (peptide)
# chain: KTILSRSLAVKENRE
# B2: PALLD (peptide)
# chain: ILTSSRAFLLSSARK
# Assays:
# Assay in all cases: PRISMA enrichment of interactor (LFQ) in peptide spot vs all other peptide spots (log2 fold change); higher = stronger / more specific binding of the interactor to the peptide
# [1] = target: AAMP, Q13685
# Method: (§1)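 PRISMA: 15-aa overlapping tiles (offset 8 aa) of 60 microproteins, plus SOS1/GLUT1 control peptides, were spot-synthesized on cellulose membranes in triplicate. Membranes were incubated with benzonase-treated HEK293T lysate, and bound proteins were identified by LC-MS/MS with LFQ. Enrichment is the log2 fold change of each protein in one spot versus all other spots. Only interactors passing the significance cutoff are listed.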
# [2] = target: ABCF2, Q9UG63
# Method: as §1
# [3] = target: ALKBH5, Q6P6C2
# Method: as §1
# [4] = target: AP3S1, Q92572
# Method: as §1
# [5] = target: ARF4, P18085
# Method: as §1
# [6] = target: CDCA8, Q53HL2
# Method: as §1
# [7] = target: DHCR24, Q15392
# Method: as §1
# [8] = target: DHX9, Q08211
# Method: as §1
# [9] = target: DIMT1, Q9UNQ2
# Method: as §1
# [10] = target: ECD, O95905
# Method: as §1
# [11] = target: GNL3L, Q9NVN8
# Method: as §1
# [12] = target: KPNA2, P52292
# Method: as §1
# [13] = target: MRPS31, Q92665
# Method: as §1
# [14] = target: NOB1, Q9ULX3
# Method: as §1
# [15] = target: POLE, Q07864
# Method: as §1
# [16] = target: RAVER1, Q8IY67
# Method: as §1
# [17] = target: SCYL2, Q6P3W7
# Method: as §1
# [18] = target: TRIM28, Q13263
# Method: as §1
# [19] = target: USP15, Q9Y4E8
# Method: as §1
# [20] = target: XAB2, Q9HCS7
# Method: as §1
# [21] = target: ASCC3, Q8N3C0
# Method: as §1
# [22] = target: ATP5F1D, P30049
# Method: as §1
# [23] = target: CALR, P27797
# Method: as §1
# [24] = target: CTNNA1, P35221
# Method: as §1
# [25] = target: CTNNBL1, Q8WYA6
# Method: as §1
# [26] = target: DAD1, P61803
# Method: as §1
# [27] = target: INTS2, Q9H0H0
# Method: as §1
# [28] = target: IQCB1, Q15051
# Method: as §1
# [29] = target: MDH2, P40926
# Method: as §1
# [30] = target: MRPL18, Q9H0U6
# Method: as §1
# [31] = target: SLC27A4, Q6P1M0
# Method: as §1
# [32] = target: TTC27, Q6P3X3
# Method: as §1
# [33] = target: USP9X, Q93008
# Method: as §1
Binder,PRISMA enrichment of interactor (log2) [1],PRISMA enrichment of interactor (log2) [2],PRISMA enrichment of interactor (log2) [3],PRISMA enrichment of interactor (log2) [4],PRISMA enrichment of interactor (log2) [5],PRISMA enrichment of interactor (log2) [6],PRISMA enrichment of interactor (log2) [7],PRISMA enrichment of interactor (log2) [8],PRISMA enrichment of interactor (log2) [9],PRISMA enrichment of interactor (log2) [10],PRISMA enrichment of interactor (log2) [11],PRISMA enrichment of interactor (log2) [12],PRISMA enrichment of interactor (log2) [13],PRISMA enrichment of interactor (log2) [14],PRISMA enrichment of interactor (log2) [15],PRISMA enrichment of interactor (log2) [16],PRISMA enrichment of interactor (log2) [17],PRISMA enrichment of interactor (log2) [18],PRISMA enrichment of interactor (log2) [19],PRISMA enrichment of interactor (log2) [20],PRISMA enrichment of interactor (log2) [21],PRISMA enrichment of interactor (log2) [22],PRISMA enrichment of interactor (log2) [23],PRISMA enrichment of interactor (log2) [24],PRISMA enrichment of interactor (log2) [25],PRISMA enrichment of interactor (log2) [26],PRISMA enrichment of interactor (log2) [27],PRISMA enrichment of interactor (log2) [28],PRISMA enrichment of interactor (log2) [29],PRISMA enrichment of interactor (log2) [30],PRISMA enrichment of interactor (log2) [31],PRISMA enrichment of interactor (log2) [32],PRISMA enrichment of interactor (log2) [33]
B1,4.32,5.24,4.36,5.27,5.95,4.62,4.42,5.24,5.32,4.8,5.9,5.2,4.62,5.16,4.13,5.32,5.49,4.51,5,4.87,–,–,–,–,–,–,–,–,–,–,–,–,–
B2,4.57,–,–,–,–,–,–,–,–,–,–,–,–,–,–,–,–,–,–,–,6.02,5.18,6.12,4.43,6.29,10.2,4.86,4.07,5.27,4.69,5.34,4.58,6.9
